Measurements reported in US7449567B2, “Isolation and identification of mouse and human transcription control elements associated with cytochrome expression” (Xenogen Corporation, priority 2001, dated 2008).

Columns and labels:
[1] = molecular target: T1, hPXR (Homo sapiens, UniProt O75469); conditions: cited from earlier work
T1 sequence (O75469 1-434): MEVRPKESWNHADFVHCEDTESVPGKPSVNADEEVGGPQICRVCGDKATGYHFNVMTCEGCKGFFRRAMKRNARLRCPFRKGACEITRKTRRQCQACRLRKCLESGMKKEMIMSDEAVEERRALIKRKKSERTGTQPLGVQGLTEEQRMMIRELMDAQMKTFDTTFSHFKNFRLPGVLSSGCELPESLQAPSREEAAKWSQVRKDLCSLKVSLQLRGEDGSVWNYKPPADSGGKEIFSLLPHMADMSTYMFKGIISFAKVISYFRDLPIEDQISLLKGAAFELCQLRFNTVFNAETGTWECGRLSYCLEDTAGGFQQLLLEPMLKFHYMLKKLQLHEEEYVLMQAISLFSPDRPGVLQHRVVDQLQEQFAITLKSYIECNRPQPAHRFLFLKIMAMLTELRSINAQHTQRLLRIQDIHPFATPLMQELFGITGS

[2] = system: CYP3A4-luc transgene (13 kb human CYP3A4 promoter); conditions: FVB (CYP3A4-luc transgenic, line #82), mouse, in vivo
Protocol: General methods for evaluating the animal lines were as follows. Tg founders were bred to wild-type FvB mice to generate F1 mice. A female transgenic founder was bred to a wild-type FvB male and a male transgenic founder was bred to a few wild-type FvB females.
A Luciferin stock solution of 30 mg/ml was prepared in sterile PBS.
The route of administration for the drugs and for luciferin was IP. The dose of reagent administration of luciferin substrate and drugs was as follows. Dose of luciferin: 150 mg/kg of a 30 mg/ml luciferin stock was injected IP five minutes before imaging in the IVIS™ (Xenogen Corporation, Alameda, Calif.) system. […] DMSO was administrated as a vehicle control.
Following luciferin administration the animals were anesthetized using gas anesthesia (Isoflurane) and placed in an IVIS™ box (Xenogen Corporation, Alameda, Calif.) for imaging. All animals were imaged before and after chemical administration, and imaged at high resolution (binning 2) for 10 seconds or 1 minute, for males and females, respectively.
NT is the non-treated control. Before each imaging session, mice were injected i.p. with 150 mg/kg luciferin. […] Measurements on each mouse were performed as described above. […] Measurements on each mouse were performed as described above.

COC(=O)C1=C(C)NC(C)=C(C(=O)OC)C1c1ccccc1[N+](=O)[O-] [Nif, nifedipine]
induction of CYP3A4 expression via hPXR [1]: relatively better inducers of CYP3A4 expression
induction of the transgene CYP3A4-luc [2]: induced the transgene CYP3A4-luc better than other three compounds
